Source: publication PMC11293870
Residue numbers refer to the chain shown, from its start. Numbers in names are those of the source. No constants are given. Whether binding was seen depends on the method and setting. Binding seen in cells or lysates may run through a third protein. Some results given as binding are weak or reduced against the parent protein; the word gives no strength. Each block holds one molecule with its values, some of them ahead of it.

The chains behind the UniProt entries cited, without tags or fusion partners. Where a name states a change or a piece, a line headed by the entry shows the natural chain unless it says otherwise.
UniProt Q64261: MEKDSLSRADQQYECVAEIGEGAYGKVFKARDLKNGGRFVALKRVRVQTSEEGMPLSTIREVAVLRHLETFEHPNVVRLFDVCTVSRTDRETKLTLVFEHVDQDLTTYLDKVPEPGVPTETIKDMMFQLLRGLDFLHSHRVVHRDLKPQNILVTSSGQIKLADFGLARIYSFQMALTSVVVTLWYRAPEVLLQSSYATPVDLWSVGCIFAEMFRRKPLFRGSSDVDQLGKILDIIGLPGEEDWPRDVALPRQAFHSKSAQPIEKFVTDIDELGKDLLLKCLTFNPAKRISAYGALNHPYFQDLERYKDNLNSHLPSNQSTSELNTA

Experiments:
[1] = target: T1, p16^INK4a-PPI reporter (pcDNA3.1-p16^INK4a-F[2]) (mouse) (UniProt P51480); experiment: split reporter; Renilla luciferase protein-fragment complementation (RLuc PCA) PPI reporter: CDK4/CDK6-F[1] and p16^INK4a-F[2] (C-terminal fusions) transiently co-expressed for 48 hr in HEK293T cells, 24-well format; bioluminescence of intact cells in PBS after addition of h-coelenterazine
T1 sequence: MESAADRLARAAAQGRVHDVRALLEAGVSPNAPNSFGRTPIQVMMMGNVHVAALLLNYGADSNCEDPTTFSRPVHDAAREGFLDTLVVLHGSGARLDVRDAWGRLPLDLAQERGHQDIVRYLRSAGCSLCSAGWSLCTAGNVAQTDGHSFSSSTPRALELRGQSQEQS

[2] = target: T2, p16^INK4a-PPI reporter (P40L) (pcDNA3.1-p16^INK4a-P40L-F[2]) (mouse) (UniProt P51480); experiment: as above
T2 sequence: T1 sequence with P40L

Molecule: CDK6-PPI reporter (R31C) (pcDNA3.1-CDK6-R31C-F[1]) (from UniProt Q64261 1-326) (enzyme)
binding [1]: binds

B1: CDK4-PPI reporter (pcDNA3.1-CDK4-F[1]) (enzyme, UniProt P30285 1-303)
chain: MAATRYEPVAEIGVGAYGTVYKARDPHSGHFVALKSVRVPNGGAAGGGLPVSTVREVALLRRLEAFEHPNVVRLMDVCATSRTDRDIKVTLVFEHIDQDLRTYLDKAPPPGLPVETIKDLMRQFLSGLDFLHANCIVHRDLKPENILVTSNGTVKLADFGLARIYSYQMALTPVVVTLWYRAPEVLLQSTYATPVDMWSVGCIFAEMFRRKPLFCGNSEADQLGKIFDLIGLPPEDDWPREVSLPRGAFAPRGPRPVQSVVPEMEESGAQLLLEMLTFNPHKRISAFRALQHSYLHKEESDAE
binding [2]: no binding
binding [1]: binds

More lines, now with the values ahead:

binding [2]: no binding
binding [1]: binds
Molecule: CDK6-PPI reporter (pcDNA3.1-CDK6-F[1]) (from UniProt Q64261 1-326) (enzyme)

binding [1]: binds
B2: CDK4-PPI reporter (R24C) (pcDNA3.1-CDK4-R24C-F[1]) (enzyme, UniProt P30285 1-303)
chain: B1 chain with R24C
